Data source: PubChem BioAssay AID1224830 (NIAID, 2016)
The deposit covers about 18,000 reagents; this is a random part of them. About 2,900 of them (16%) count as active. 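Calls are made per well; low scores hint the gene aids the LPS response, high scores that it dampens it.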 Unmarked entries are inactive. Repeated entries: four replicate wells of each siRNA pool. No sequences are given here.

Screen: 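Host factors that control LPS-induced TNF expression in human macrophages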 (primary screen)
Cells: human THP-1 monocytic leukaemia cells, TNF dual-luciferase reporter clone, PMA-differentiated to macrophage-like cells
Reagent: siRNA pool against human genes, 50 nM
Duration: LPS for 4 h, given about 3 days after siRNA transfection
Treatment: bacterial LPS (TLR4 ligand), 10 ng/ml
Measurement: 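Ratio of firefly to renilla light, scaled to the plate median and expressed as a robust z-score per replicate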
Direction: TNF reporter robust z-score: higher = stronger TNF reporter response to LPS
Hit rule: 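a well is active when its z-score exceeds 2.8 or falls below -1.5; control wells carry no call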

gene knocked down | TNF reporter robust z-score
ELAPOR1 | 0.44
ELAPOR1 | 0.99
ELAPOR1 | 0.94
ELAPOR1 | 0.58
ARPC4 (actin related protein 2/3 complex subunit 4) | -0.52
ARPC4 (actin related protein 2/3 complex subunit 4) | 0.35
ARPC4 (actin related protein 2/3 complex subunit 4) | 0.99
ARPC4 (actin related protein 2/3 complex subunit 4) | 0.89
ZNF266 (zinc finger protein 266) | 1.46
ZNF266 (zinc finger protein 266) | 0.99
ZNF266 (zinc finger protein 266) | 0.69
ZNF266 (zinc finger protein 266) | 0.7
LDLRAP1 (low density lipoprotein receptor adaptor protein 1) | -0.26
LDLRAP1 (low density lipoprotein receptor adaptor protein 1) | -0.84
LDLRAP1 (low density lipoprotein receptor adaptor protein 1) | -0.4
TTC23 (tetratricopeptide repeat domain 23) | -1.15
TTC23 (tetratricopeptide repeat domain 23) | -0.2
TTC23 (tetratricopeptide repeat domain 23) | -0.35
TTC23 (tetratricopeptide repeat domain 23) | -0.59
ADPRHL1 (ADP-ribosylhydrolase like 1) | -1.9 (active)
ADPRHL1 (ADP-ribosylhydrolase like 1) | -1.57 (active)
ADPRHL1 (ADP-ribosylhydrolase like 1) | -1.95 (active)
ADPRHL1 (ADP-ribosylhydrolase like 1) | -1.59 (active)
TBC1D15 (TBC1 domain family member 15) | 0.91
TBC1D15 (TBC1 domain family member 15) | -0.77
TBC1D15 (TBC1 domain family member 15) | -1.29
TBC1D15 (TBC1 domain family member 15) | -0.63
LINC01465 (long independently transcribed non-coding RNA 1465) | 0.16
LINC01465 (long independently transcribed non-coding RNA 1465) | 0.49
LINC01465 (long independently transcribed non-coding RNA 1465) | 0.79
LINC01465 (long independently transcribed non-coding RNA 1465) | 1.48
MFSD8 (major facilitator superfamily domain containing 8) | 0.15
MFSD8 (major facilitator superfamily domain containing 8) | 1.09
MFSD8 (major facilitator superfamily domain containing 8) | 0.89
MFSD8 (major facilitator superfamily domain containing 8) | -0.42
XG (Xg glycoprotein (Xg blood group)) | 0.27
XG (Xg glycoprotein (Xg blood group)) | -1.09
XG (Xg glycoprotein (Xg blood group)) | -0.75
RUNDC3B (RUN domain containing 3B) | 2.38
RUNDC3B (RUN domain containing 3B) | 0.92
RUNDC3B (RUN domain containing 3B) | 1.68
RUNDC3B (RUN domain containing 3B) | 2.4

The list goes on; the last 9 above are carried over.
gene knocked down | TNF reporter robust z-score
MFSD8 (major facilitator superfamily domain containing 8) | 0.89
MFSD8 (major facilitator superfamily domain containing 8) | -0.42
XG (Xg glycoprotein (Xg blood group)) | 0.27
XG (Xg glycoprotein (Xg blood group)) | -1.09
XG (Xg glycoprotein (Xg blood group)) | -0.75
RUNDC3B (RUN domain containing 3B) | 2.38
RUNDC3B (RUN domain containing 3B) | 0.92
RUNDC3B (RUN domain containing 3B) | 1.68
RUNDC3B (RUN domain containing 3B) | 2.4
OR1G1 (olfactory receptor family 1 subfamily G member 1) | -1.4
OR1G1 (olfactory receptor family 1 subfamily G member 1) | -0.57
OR1G1 (olfactory receptor family 1 subfamily G member 1) | -1.26
OR1G1 (olfactory receptor family 1 subfamily G member 1) | -1.5
HOXD1 (homeobox D1) | 0.73
HOXD1 (homeobox D1) | 0.72
HOXD1 (homeobox D1) | 0.35
HOXD1 (homeobox D1) | 0.71
KCNAB3 | 0.76
KCNAB3 | 0.59
KCNAB3 | 0.23
KCNAB3 | 1.21
KLHL3 (kelch like family member 3) | -0.11
KLHL3 (kelch like family member 3) | -0.08
KLHL3 (kelch like family member 3) | -0.38
KLHL3 (kelch like family member 3) | -0.21
LCE3C (late cornified envelope 3C) | -0.97
LCE3C (late cornified envelope 3C) | 0.2
LCE3C (late cornified envelope 3C) | -1.23
LCE3C (late cornified envelope 3C) | -1.14
DDX60 (DExD/H-box helicase 60) | -0.7
DDX60 (DExD/H-box helicase 60) | 0.15
DDX60 (DExD/H-box helicase 60) | -0.61
DDX60 (DExD/H-box helicase 60) | 0.3
RNASE2 (ribonuclease A family member 2) | -0.69
RNASE2 (ribonuclease A family member 2) | -0.37
RNASE2 (ribonuclease A family member 2) | -1.08
RNASE2 (ribonuclease A family member 2) | -0.93
STEAP3 (STEAP3 metalloreductase) | 0.04
STEAP3 (STEAP3 metalloreductase) | -0.3
STEAP3 (STEAP3 metalloreductase) | 0.66
STEAP3 (STEAP3 metalloreductase) | 0.26
ZNF677 (zinc finger protein 677) | -0.94
ZNF677 (zinc finger protein 677) | -0.79
ZNF677 (zinc finger protein 677) | -1.25
ZNF677 (zinc finger protein 677) | -1.14
F2 (coagulation factor II, thrombin) | 1
F2 (coagulation factor II, thrombin) | 1.24
F2 (coagulation factor II, thrombin) | 1.05
F2 (coagulation factor II, thrombin) | 0.21
PRICKLE3 (prickle planar cell polarity protein 3) | -0.34
PRICKLE3 (prickle planar cell polarity protein 3) | -0.55
PRICKLE3 (prickle planar cell polarity protein 3) | -1
PRICKLE3 (prickle planar cell polarity protein 3) | 0.72
LRP5 (LDL receptor related protein 5) | -0.51
LRP5 (LDL receptor related protein 5) | -0.04
LRP5 (LDL receptor related protein 5) | -1.06
LRP5 (LDL receptor related protein 5) | 0.01
AIP (AHR interacting HSP90 co-chaperone) | -0.49
AIP (AHR interacting HSP90 co-chaperone) | 0.32
AIP (AHR interacting HSP90 co-chaperone) | -0.03
AIP (AHR interacting HSP90 co-chaperone) | 0.78
RPL23 (ribosomal protein L23) | -2.03 (active)
RPL23 (ribosomal protein L23) | -1.22
RPL23 (ribosomal protein L23) | -1.53 (active)
RPL23 (ribosomal protein L23) | -1.15
USP3 (ubiquitin specific peptidase 3) | 0.52
USP3 (ubiquitin specific peptidase 3) | 0.17
USP3 (ubiquitin specific peptidase 3) | -0.25
USP3 (ubiquitin specific peptidase 3) | 3.73 (active)
MINK1 (misshapen like kinase 1) | -0.64
MINK1 (misshapen like kinase 1) | -0.54
MINK1 (misshapen like kinase 1) | -1.23
MINK1 (misshapen like kinase 1) | -0.24
ADAMTSL2 (ADAMTS like 2) | 0.14
ADAMTSL2 (ADAMTS like 2) | 0.57
ADAMTSL2 (ADAMTS like 2) | 0.51
ADAMTSL2 (ADAMTS like 2) | -0.11
